Reference: publication PMC9707739
These are yes or no findings as the source states them, for the method shown. Binding seen in cells or lysates may run through a third protein. Some entries that bind do so weakly or less than the wild type. Where a sequence is shown, tags or fusion partners need not be part of it.

Chains of the proteins cited; added tags and fusions are not shown.
UniProt P28159: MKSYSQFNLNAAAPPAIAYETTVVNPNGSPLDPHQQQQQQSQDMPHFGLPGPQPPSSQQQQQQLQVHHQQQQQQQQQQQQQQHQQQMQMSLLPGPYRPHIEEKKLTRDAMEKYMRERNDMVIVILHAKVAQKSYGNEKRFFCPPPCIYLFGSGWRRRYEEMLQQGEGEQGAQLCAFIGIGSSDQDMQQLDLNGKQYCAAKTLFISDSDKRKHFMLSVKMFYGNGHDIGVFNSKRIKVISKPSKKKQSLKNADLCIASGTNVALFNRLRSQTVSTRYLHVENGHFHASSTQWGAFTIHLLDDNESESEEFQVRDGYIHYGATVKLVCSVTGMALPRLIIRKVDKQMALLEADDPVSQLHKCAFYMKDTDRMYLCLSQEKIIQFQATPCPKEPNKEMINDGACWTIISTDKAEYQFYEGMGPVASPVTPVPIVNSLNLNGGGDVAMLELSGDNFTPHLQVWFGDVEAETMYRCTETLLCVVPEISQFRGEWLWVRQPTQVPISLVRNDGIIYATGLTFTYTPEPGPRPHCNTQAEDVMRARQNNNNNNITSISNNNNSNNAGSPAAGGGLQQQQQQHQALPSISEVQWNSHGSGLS

Biological target: T1, GST::Med19 (Drosophila) (UniProt Q9VVL6)
T1 sequence: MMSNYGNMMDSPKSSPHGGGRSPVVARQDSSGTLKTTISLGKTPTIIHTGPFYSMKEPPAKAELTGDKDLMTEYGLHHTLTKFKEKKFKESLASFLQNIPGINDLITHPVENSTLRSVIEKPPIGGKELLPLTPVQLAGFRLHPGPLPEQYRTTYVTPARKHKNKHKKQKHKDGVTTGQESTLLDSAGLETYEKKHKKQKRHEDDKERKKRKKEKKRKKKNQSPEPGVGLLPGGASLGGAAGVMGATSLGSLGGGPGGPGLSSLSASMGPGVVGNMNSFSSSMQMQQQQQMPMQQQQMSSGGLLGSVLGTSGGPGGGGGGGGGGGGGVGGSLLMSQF
Assay: pull-down; GST or GST::Med19 on glutathione-Sepharose beads; in vitro translated Su(H)-HA as prey; Western blot with anti-HA; input 5% of the starting material; only the target purified

C-terminally HA tagged Su(H) (from UniProt P28159 1-594)
binding: binds
